Assay: Octanol-buffer partition coefficient, log D of the compound at pH 7.4 after 30 mins by LC-UV based shake-flask method
Conditions: octanol/water

Cc1ccc(-n2nc(C)c3ccc(-c4ccc([C@H]5C[C@@H]5C(=O)O)cc4)cc32)cc1
logD at 0.5 h: 3.8

From ChEMBL document CHEMBL4049430, “Indazole-6-phenylcyclopropylcarboxylic Acids as Selective GPR120 Agonists with in Vivo Efficacy” (J Med Chem, 2017)
